From PubChem BioAssay AID2441 (National Center for Advancing Translational Sciences (NCATS), 2010)
The inconclusive results got no clear call from the source; some entries with a clear call stand among them for comparison. A potency beside an inconclusive call is a rough fit, not a confirmed value. Activity calls are given as the source filed them. Calls come from the whole dose curve; as a rule, active = well fitted inhibition curve with a large enough effect; inconclusive = small, poorly fitted or top-dose-only effect; inactive = flat fitted curve, though single readings scatter.

Test: Cell cycle validation with wells to cells screening paradigm
Conditions: HeLa cell cycle G2/M arrest, Hoechst DNA content imaging
Text: Understanding cell cycle regulation is a critical component in combating various diseases such as cancer. Proper execution of cell cycle activity is essential for processes such as cell growth, DNA replication, and mitosis and surveillance mechanisms function as cell cycle checkpoints at the G1, S, and G2/M phases. Thus, profiling agents which disrupt cancer cell division represents a large effort in oncology-based studies. Compound-induced cell cycle perturbations can be analyzed through changes in specific cell cycle phase markers, such as DNA content, using high content screening. Cell cycle inhibitors can be identified easily due to well established assays for this biological process, where early understanding of the phenotypic changes came from microscopy and early developments in automated imaging. Furthermore, recent imaging based studies have performed cell cycle analysis following compound treatment where phenotypic fingerprints for phases of the cell cycle were determined or concentration-response based testing of selected compounds and drugs was used to measure a phenotypic profile in a dose-dependent manner. We sought to improve the throughput of current cell cycle assays, typically performed in 384-well or lower density plates by optimizing this assay for 1,536 well microtiter plates through the coupling of a laser-scanning cytometer and an automated microscope.
Reagents: 70% EtOH, Hoechst Stain, PBS Controls: 7.6 uM (final starting concentration) Vinblastine and 38.3 uM (final starting concentration) nocodazole were dispensed into columns 1 and 2, respectively, and titrated 1:2 in DMSO (16-point in duplicate). Column 3 contained DMSO and column 4 contained a single concentration of nocodazole (38.3 uM) (full G2/M arrest, ~100% activity). Assay Steps: Six uL of HeLa cells (500 cells/well) were dispensed into 1536-well Aurora LoBase COP clear bottom plates and cells were incubated for 24 hours at 37 Celsius and covered with stainless steel rubber gasket-lined plate lids equipped with gas-exchange holes. Compound transfer was performed with a 1536-pin-tool and cells were incubated with compound 21-22 hours at 37 Celsius. For fixation, media was aspirated (with approximately 2 uL left in the well) and 5 ul 70% EtOH was added to each well followed by incubation at room temperature (covered) for 30 minutes. Next, EtOH was aspirated and 5 ul Hoechst stain in PBS (1:2000) was added to each well (1:2000) and left at room temperature (covered) for 30 minutes. Plates were read on the Acumen eX3 system and concentration response curves were generated after the readings. […] Wells belonging to the concentrations on the curves of interest were flagged after the Acumen reads and subsequently read on the IN Cell.
With `Cc1c2ccncc2c(C)c2c1[nH]c1ccccc12` the Potency was inconclusive: 28.2 µM [inhibitor, single point]. With `C[C@]12Cc3cn4c(nc3C=C1CCC1C2CC[C@@]2(C)[C@H]1CC[C@@]2(O)C#N)nc1ccccc14` (some centres undefined) the Potency was inconclusive: 28.2 µM [inhibitor, single point]. With `COc1cc2c(cc1O)CCC1C2CC[C@]2(C)[C@@H](O)CC[C@@H]12` (some centres undefined) the Potency was active: 1.12 µM. With `CN(C)CCCN1c2ccccc2Sc2ccc(Cl)cc21` the Potency was inconclusive: 15.8 µM [inhibitor, single point].
